Values from PubChem BioAssay AID743454 (Peter MacCallum Cancer Centre, 2014)

Purpose: 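Search for knock-downs that restore vorinostat killing in resistant colon cancer cells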 (primary screen)
Cell system: human HCT116-VR colon cancer cells, selected for vorinostat resistance
Reagent: siRNA pool against human genes, 40 nM siRNA pool
Timing: vorinostat for 24 h, read-out about 72 h after transfection
Conditions: vorinostat at 2.5 µM final
Read-out: 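Cell viability by CellTiter-Fluor and caspase 3/7 activity by luminescence, each scaled to mock wells per plate, duplicates averaged, then robust z-scored over all plates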
Scale: viability robust z-score: higher = more viable cells than screen typical; caspase robust z-score: higher = more caspase 3/7 activity than screen typical
Active means: 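Hits are knock-downs in viability class RV1/RV2 or caspase class CA1/CA2, excluding ones that killed cells in the no-drug cell-count arm; hits then retested with single siRNAs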
Shown is a random part of about 18,000 deposited reagents. Of all reagents, 450 (2.5%) were called active. 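Single biological run; no consistent viability z cut-off exists, so the class columns, not z-scores, define the calls.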

gene symbol	viability hit class	caspase hit class	viability robust z-score	caspase robust z-score	outcome
MDP1	no change	no change	0.48	-0.02	inactive
ALDOA	no change	no change	-3.63	0.28	inactive
NOX3	no change	no change	0.06	-0.52	inactive
TRPC3	no change	no change	-1.66	-1.03	inactive
LMO3	no change	no change	1.6	-0.7	inactive
OR5H15	no change	no change	0.4	0.12	inactive
ACAD9	no change	no change	-0.7	1.25	inactive
BMPR2	no change	no change	1.86	-0.4	inactive
EIF2AK1	no change	no change	-0.64	2.46	inactive
NUCLEOLIN	no change	no change	-0.85	0.97	inactive
ANAPC13	no change	no change	0.79	0.06	inactive
VPS8	no change	no change	0.56	0.12	inactive
RNASET2	no change	no change	1.21	-0.14	inactive
CCT8	no change	no change	-2.56	4.67	inactive
NAALADL1	no change	no change	-0.48	1.48	inactive
TSPYL4	no change	no change	-0.4	1.24	inactive
IGF2BP2-AS1	no change	no change	-0.42	1.58	inactive
TMEM100	no change	no change	-0.68	0.44	inactive
ZNF70	no change	no change	-1.77	-0.53	inactive
ATG2A	no change	no change	0.63	-0.5	inactive
FKBP14	no change	no change	0.83	0.54	inactive
MDFIC	no change	no change	-0.94	0.3	inactive
PGRMC2	no change	no change	-1.46	-0.49	inactive
MBLAC1	no change	no change	-0.2	-0.47	inactive
OR4D11	no change	no change	0.14	-0.55	inactive
OR2T29	no change	no change	1.38	0.04	inactive
SIL1	no change	no change	-0.98	-0.76	inactive
UTS2B	no change	no change	1.01	0.46	inactive
CX3CL1	no change	no change	-0.31	0.29	inactive
SLC19A4P	no change	no change	-0.22	-1.12	inactive
LINC02914	no change	no change	-2.67	4.52	inactive
PITX3	no change	no change	-0.76	3.45	inactive
GCLM	no change	no change	0.46	-0.36	inactive
IFT38	no change	no change	0.8	2.44	inactive
TNFRSF6B	no change	no change	-1.62	0.34	inactive
GLS2	no change	no change	0.26	0.38	inactive
GAB2	no change	no change	-0.11	0.43	inactive
TAF4B	no change	no change	0.02	-1.09	inactive
FAT4	no change	no change	0.94	-0.63	inactive
MCF2L	no change	no change	-0.92	0.98	inactive
VNN3P	no change	no change	0.5	2.56	inactive
OR5H14	no change	no change	0.12	4.38	inactive
PRTG	no change	no change	-0.15	0.86	inactive
CAMTA1	no change	no change	-0.37	1.26	inactive
IL7	no change	no change	-0.05	0.15	inactive
CHPT1	no change	no change	0.4	-0.5	inactive
UGT2B7	no change	no change	-1.57	-0.14	inactive
SH3GL2	no change	no change	0.78	-0.59	inactive
KIF18B	no change	no change	-1.27	-0.03	inactive
LNX1	no change	no change	0.25	-0.7	inactive
GAK	no change	no change	-0.63	-0.12	inactive
CMAS	no change	no change	-1.04	-0.17	inactive
PAIP2	no change	no change	-0.52	0.64	inactive
RGS8	no change	no change	1.66	-0.74	inactive
HP1BP3	no change	no change	1.19	0.32	inactive
EPC1	no change	no change	0.54	-0.37	inactive
EZR	no change	no change	-1.14	1.06	inactive

Look-ups from the entries so far:
CAMTA1, caspase hit class → no change
Under “caspase hit class”, PAIP2 has no change
Value for NAALADL1 under “viability robust z-score”: -0.48
Under “outcome”, OR5H14 has inactive
